Values are relative to the signal before dosing, not to a vehicle control; the signal also falls without drug.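 Fibroblast labels name human fibroblasts: mostly primary ones from tissues such as uterus (C12385, HUF), lung (H6013), bone (Hs27A), adrenal (HADF) and skin (WS1), plus mammary HMF and breast cancer-associated Hs343T. The cancer cells are basal-like or mesenchymal-like triple-negative breast cancer lines. The paper calls a changed response a hit when it shifts by more than 3x the replicate standard deviation. The tissue of the other fibroblasts is not given here.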
Test system: HCC1143
Test: relative JC-1 red fluorescence (viability) vs pre-drug, coculture with fibroblast (fraction); higher = more viable cancer cells
Conditions: 0.1 µM
Description: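 JC-1 labelled TNBC cells cocultured 1:1 (1,500 cells each) with CellTrace Violet stained primary or stromal fibroblasts in 384-well plates in FluoroBrite medium, treated with one of 42 anticancer drugs at 0.1, 1, 10 or 100 uM. JC-1 red fluorescence (mitochondrial integrity in cancer cells only) was read by plate reader every 8 h for 72 h. Values are normalised to each well's pre-drug value. The stock of one drug was tenfold lower, so its dose labels may be too high.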

CS(=O)(=O)CCNCc1ccc(-c2ccc3ncnc(Nc4ccc(OCc5cccc(F)c5)c(Cl)c4)c3c2)o1 [Lapatinib]
relative JC-1 red fluorescence
Conditions | 8 h | 16 h | 24 h | 32 h | 40 h | 48 h | 56 h | 64 h | 72 h
coculture fibroblast: C12385 | 0.85366 | 0.785 | 0.693 | 0.606 | 0.534 | 0.479 | 0.438 | 0.392 | 0.37
coculture fibroblast: H6013 | 0.774 | 0.678 | 0.625 | 0.6026 | 0.522 | 0.503 | 0.466 | 0.444 | 0.4158
coculture fibroblast: H6019 | 0.825 | 0.724 | 0.688 | 0.622 | 0.59 | 0.565 | 0.516 | 0.472 | 0.4331
coculture fibroblast: H6076 | 0.795 | 0.712 | 0.679 | 0.6939 | 0.627 | 0.63 | 0.602 | 0.589 | 0.611
coculture fibroblast: H6231 | 0.806 | 0.848 | 0.749 | 0.604 | 0.648 | 0.611 | 0.574 | 0.534 | 0.507
coculture fibroblast: HADF | 0.732 | 0.654 | 0.619 | 0.616 | 0.53 | 0.497 | 0.467 | 0.436 | 0.427
coculture fibroblast: HCFa | 0.7881 | 0.706 | 0.66 | 0.638 | 0.558 | 0.53 | 0.482 | 0.439 | 0.418
coculture fibroblast: HCPF | 0.793 | 0.799 | 0.729 | 0.638 | 0.653 | 0.618 | 0.587 | 0.554 | 0.534
coculture fibroblast: HHSteC | 0.828 | 0.742 | 0.701 | 0.672 | 0.591 | 0.564 | 0.522 | 0.486 | 0.449
coculture fibroblast: HMF | 0.797 | 0.847 | 0.7594 | 0.6779 | 0.665 | 0.6304 | 0.5942 | 0.562 | 0.54
coculture fibroblast: HPFa | 0.935 | 0.857 | 0.806 | 0.726 | 0.657 | 0.619 | 0.561 | 0.499 | 0.456
coculture fibroblast: HUF | 0.8919 | 0.796 | 0.741 | 0.659 | 0.6153 | 0.5842 | 0.5388 | 0.50326 | 0.4707
coculture fibroblast: Hs5 | 0.856 | 0.817 | 0.791 | 0.786 | 0.712 | 0.686 | 0.665 | 0.639 | 0.644
coculture fibroblast: Hs27A | 0.7033 | 0.621 | 0.578 | 0.5982 | 0.472 | 0.4454 | 0.4034 | 0.365 | 0.356
coculture fibroblast: Hs343T | 0.814 | 0.821 | 0.77 | 0.71 | 0.69 | 0.666 | 0.621 | 0.588 | 0.564
coculture fibroblast: WS1 | 0.8534 | 0.791 | 0.736 | 0.67 | 0.613 | 0.564 | 0.513 | 0.473 | 0.451

Reference: the supplement of paper PMC6078165
